Measured values published in article PMC3157345.
These are yes or no findings as the source states them, for the method shown. Binding seen in cells or lysates may run through a third protein. For part of these data: Sequences can lack the tags named with a protein.

Sequences of proteins named here, by UniProt entry; tags and fusion partners are left off. Residues count along the entry.
UniProt Q9NRC8: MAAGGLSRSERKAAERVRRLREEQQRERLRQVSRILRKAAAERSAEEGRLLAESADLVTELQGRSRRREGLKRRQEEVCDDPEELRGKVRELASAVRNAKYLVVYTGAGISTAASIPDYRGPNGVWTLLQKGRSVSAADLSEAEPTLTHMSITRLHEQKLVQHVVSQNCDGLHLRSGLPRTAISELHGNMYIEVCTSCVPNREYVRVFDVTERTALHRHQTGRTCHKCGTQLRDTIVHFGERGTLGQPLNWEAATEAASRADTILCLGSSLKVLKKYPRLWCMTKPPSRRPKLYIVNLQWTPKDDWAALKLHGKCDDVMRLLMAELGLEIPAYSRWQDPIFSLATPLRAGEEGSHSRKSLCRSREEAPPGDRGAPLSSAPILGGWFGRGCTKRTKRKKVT
UniProt Q96EB6: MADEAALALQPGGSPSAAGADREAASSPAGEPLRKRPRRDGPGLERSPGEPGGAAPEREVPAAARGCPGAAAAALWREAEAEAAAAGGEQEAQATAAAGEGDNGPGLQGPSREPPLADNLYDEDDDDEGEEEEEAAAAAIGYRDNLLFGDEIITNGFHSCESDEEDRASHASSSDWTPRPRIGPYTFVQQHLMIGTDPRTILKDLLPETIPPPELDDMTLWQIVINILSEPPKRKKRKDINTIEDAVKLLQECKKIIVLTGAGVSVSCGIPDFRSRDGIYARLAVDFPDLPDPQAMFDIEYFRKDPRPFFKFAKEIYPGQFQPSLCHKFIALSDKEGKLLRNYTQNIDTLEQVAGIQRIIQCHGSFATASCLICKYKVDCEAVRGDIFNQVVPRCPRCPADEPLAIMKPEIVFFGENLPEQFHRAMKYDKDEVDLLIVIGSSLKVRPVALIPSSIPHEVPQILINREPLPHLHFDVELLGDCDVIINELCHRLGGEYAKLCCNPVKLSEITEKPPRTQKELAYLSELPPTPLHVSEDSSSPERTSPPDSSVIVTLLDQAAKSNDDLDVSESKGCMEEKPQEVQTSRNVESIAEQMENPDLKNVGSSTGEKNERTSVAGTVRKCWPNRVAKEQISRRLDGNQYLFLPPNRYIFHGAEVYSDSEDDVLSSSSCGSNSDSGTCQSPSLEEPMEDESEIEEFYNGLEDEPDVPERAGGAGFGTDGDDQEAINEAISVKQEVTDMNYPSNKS
UniProt Q8N6T7: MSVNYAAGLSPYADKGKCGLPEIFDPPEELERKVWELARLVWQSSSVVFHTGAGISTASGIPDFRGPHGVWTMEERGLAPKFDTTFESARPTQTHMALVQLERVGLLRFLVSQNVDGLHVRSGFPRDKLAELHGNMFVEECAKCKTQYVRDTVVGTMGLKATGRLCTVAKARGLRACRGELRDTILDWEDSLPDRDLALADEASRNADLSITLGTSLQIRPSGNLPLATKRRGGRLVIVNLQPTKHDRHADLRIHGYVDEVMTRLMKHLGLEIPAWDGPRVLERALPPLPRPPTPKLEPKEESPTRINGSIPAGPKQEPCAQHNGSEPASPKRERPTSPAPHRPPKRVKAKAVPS
UniProt Q9NXA8, residues 37-310: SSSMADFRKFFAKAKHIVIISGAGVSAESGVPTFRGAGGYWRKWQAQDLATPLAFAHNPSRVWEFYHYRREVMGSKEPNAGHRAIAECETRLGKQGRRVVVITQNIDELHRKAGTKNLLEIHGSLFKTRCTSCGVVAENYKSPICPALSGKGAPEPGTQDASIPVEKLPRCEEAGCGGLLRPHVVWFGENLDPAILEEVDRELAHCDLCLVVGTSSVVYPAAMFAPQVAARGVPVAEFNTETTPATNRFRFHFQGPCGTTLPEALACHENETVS
UniProt P31040, residues 43-664: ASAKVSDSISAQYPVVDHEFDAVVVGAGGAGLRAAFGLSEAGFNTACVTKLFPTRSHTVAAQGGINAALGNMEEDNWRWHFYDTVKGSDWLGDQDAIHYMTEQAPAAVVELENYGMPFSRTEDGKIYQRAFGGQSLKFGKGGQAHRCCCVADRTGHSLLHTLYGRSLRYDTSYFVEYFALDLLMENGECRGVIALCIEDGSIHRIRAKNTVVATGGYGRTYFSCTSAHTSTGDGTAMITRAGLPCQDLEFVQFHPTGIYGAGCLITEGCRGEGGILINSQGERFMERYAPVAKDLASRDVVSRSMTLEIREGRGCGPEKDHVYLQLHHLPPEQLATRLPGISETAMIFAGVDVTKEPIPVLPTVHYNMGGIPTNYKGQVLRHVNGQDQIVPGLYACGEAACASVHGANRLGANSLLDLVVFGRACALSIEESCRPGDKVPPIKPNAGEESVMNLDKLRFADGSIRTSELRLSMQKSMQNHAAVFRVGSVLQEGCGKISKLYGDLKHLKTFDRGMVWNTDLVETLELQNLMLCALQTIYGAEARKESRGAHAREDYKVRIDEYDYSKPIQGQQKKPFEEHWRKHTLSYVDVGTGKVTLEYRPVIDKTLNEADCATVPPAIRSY

Legend:
Assay in all cases: co-IP; FLAG-IPs from HEK293T cells transiently expressing FLAG-tagged sirtuins (SIRT1-7 or SIRT3-5), immunoblotted for SDHA, OSCP, FLAG or with antibody cocktails against complex II and OXPHOS subunits
SIRT7-FLAG = SIRT7-FLAG (UniProt Q9NRC8)
SIRT1-FLAG = SIRT1-FLAG (UniProt Q96EB6)
SIRT6-FLAG = SIRT6-FLAG (UniProt Q8N6T7)
SIRT2-FLAG = target: T1, SIRT2-FLAG (UniProt Q8IXJ6)
T1 sequence: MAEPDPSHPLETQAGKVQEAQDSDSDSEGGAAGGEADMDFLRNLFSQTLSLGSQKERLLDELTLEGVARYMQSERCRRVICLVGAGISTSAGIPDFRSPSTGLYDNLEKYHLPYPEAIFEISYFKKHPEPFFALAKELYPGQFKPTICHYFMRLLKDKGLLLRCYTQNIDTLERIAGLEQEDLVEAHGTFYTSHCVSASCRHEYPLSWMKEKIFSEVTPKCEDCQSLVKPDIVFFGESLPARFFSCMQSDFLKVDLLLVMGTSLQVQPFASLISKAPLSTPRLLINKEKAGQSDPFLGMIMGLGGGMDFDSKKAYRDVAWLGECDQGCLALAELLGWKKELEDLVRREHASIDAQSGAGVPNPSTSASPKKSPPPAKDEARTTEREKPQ

SIRT4-FLAG = target: T2, SIRT4-FLAG (UniProt Q9Y6E7)
T2 sequence: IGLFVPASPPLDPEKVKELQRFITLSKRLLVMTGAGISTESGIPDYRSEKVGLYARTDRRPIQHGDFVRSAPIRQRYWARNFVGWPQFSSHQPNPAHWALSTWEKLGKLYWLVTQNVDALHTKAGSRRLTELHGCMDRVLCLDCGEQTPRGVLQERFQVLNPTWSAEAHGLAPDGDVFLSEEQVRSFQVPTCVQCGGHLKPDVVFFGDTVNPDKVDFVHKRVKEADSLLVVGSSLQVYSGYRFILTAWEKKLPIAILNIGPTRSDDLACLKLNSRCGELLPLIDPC

SIRT5-FLAG = SIRT5-FLAG (UniProt Q9NXA8)

Measured: binding

SDHA subunit of complex II (succinate dehydrogenase) (from UniProt P31040 43-664)
no binding: all assays above

B1: ATP5O/OSCP (protein, UniProt P48047 24-213)
chain: FAKLVRPPVQVYGIEGRYATALYSAASKQNKLEQVEKELLRVAQILKEPKVAASVLNPYVKRSIKVKSLNDITAKERFSPLTTNLINLLAENGRLSNTQGVVSAFSTMMSVHRGEVPCTVTSASPLEEATLSELKTVLKSFLSQGQVLKLEAKTDPSILGGMIVRIGEKYVDMSVKTKIQKLGRAMREIV
no binding: all assays above
